Measured values reported in PubChem BioAssay AID2685 (National Center for Advancing Translational Sciences (NCATS), 2010).
Some of the results follow. Shown are side measurements of this screen, not its main read-out; they come without a call. The list favours compounds with an active or inconclusive main result. The note in brackets gives the kind of curve behind each potency; many fits are weak.

Assay: qHTS Assay for Lipid Storage Modulators in Drosophila S3 Cells;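 for cell number change: cells counted by Cell Tracker Red CMTPX staining in the red channel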
Details: BODIPY lipid droplet fluorescence, 18-24 h; for cell number change: measured here: cell count max response, cells fed with added oleic acid
Outline: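 Drosophila S3 cells loaded with oleic acid (400 uM, as added) and compounds at several concentrations; lipid droplets imaged by 488-nm laser-scanning cytometry, 500–530 nm intensity and object ratio to cell channel. Percent activity normalized to 20 uM Triacsin C.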

[1] = measured here: lipid fluorescence (Fed channel) AC50, cells fed with added oleic acid
[2] = measured here: cell number channel AC50, cells fed with added oleic acid

Row | SMILES | cell number change | AC50 [1] | AC50 [2]
1 | COc1ccc(CCn2c(C)cc(C(=O)CN3C(=O)C(=O)N(Cc4ccco4)C3=O)c2C)cc1 | -1.32% | 6.51 µM [rising, single point] | 
2 | Cn1c2c(c(=O)n(C)c1=O)CN(Cc1ccco1)CN2 | 6.66% |  | 
3 | CC(C)(C)OC(=O)N1CCN(C(=O)c2cccnc2Cl)CC1 | -47.6% | 6.51 µM [falling, single point] | 5.8 µM [falling, full curve]
4 | Cc1nn2c(NCc3ccccn3)c3c(nc2c1-c1ccccc1)CCC3 | 1.85% | 0.00517 µM [rising, full curve, poor fit] | 
5 | CC(=O)Nc1ccc2c(c1)nc1n2CCSC1 | 5.27% |  | 
6 | Cc1ccc(C)c(NC(=O)NC2CCCCCCC2)c1 |  | 6.51 µM [rising, single point] | 
7 | CC1(c2ccc3c(c2)OCO3)NC(=O)N(CC(=O)Nc2ccccc2[N+](=O)[O-])C1=O (stereo unspecified) | 1.82% | 6.51 µM [falling, full curve, poor fit] | 
8 | CC(=O)c1cccc(NC(=O)N2CCC(c3nnc(SCC(N)=O)n3C)CC2)c1 | 60.6% |  | 20.6 µM [rising, partial curve]
9 | O=C(COC(=O)c1ccc(Cl)c(S(=O)(=O)NCc2ccccc2)c1)NCC1CCCO1 (stereo unspecified) | -71.4% | 1.64 µM [falling, partial curve] | 18.4 µM [falling, partial curve]
10 | C=CCOc1ccc(NC(=O)C2CC(=O)N(C(C)C)C2)cc1 (stereo unspecified) | -1.29% | 0.58 µM [falling, single point] | 
11 | CCCN(C(=O)CCl)C1=CCCCC1 | 8.03% |  | 
12 | CC(C)(C)c1ccc(N2C(=O)Cc3c2nc(N)c(C#N)c3N)cc1 | -17.7% | 0.58 µM [rising, partial curve] | 
13 | COc1ccc(C(=O)C2CCCN(C(=O)c3csc(C(C)=O)c3)C2)c(C)c1 (stereo unspecified) | -11.6% | 0.517 µM [falling, full curve] | 0.0058 µM [falling, full curve, poor fit]
14 | O=C(O)C1CC=CCC1C(=O)Nc1ccccc1C(=O)N1CCN(c2ccccc2)CC1 (stereo unspecified) | -14.9% | 29.1 µM [falling, partial curve] | 6.51 µM [falling, single point]
15 | O=C(NNC(=S)NC(=O)c1cn(-c2ccccc2)nc1-c1ccccc1)c1ccncc1 | -27.5% | 3.66 µM [falling, partial curve, poor fit] | 
16 | COc1ccc2[nH]c(=O)c(CN(C(=O)c3cccnc3)c3ccc(C)cc3)cc2c1 | -15.4% | 8.2 µM [falling, partial curve] | 
17 | O=C(c1ccc(-c2ccccc2)cc1)N1CCN(c2ccccn2)CC1 | -48.3% |  | 29.1 µM [falling, partial curve]
18 | Cc1nnc(N2C(=O)c3cccc4cccc(c34)C2=O)s1 | 52.5% | 29.1 µM [rising, single point] | 20.6 µM [rising, single point]
19 | OC(CNCCc1ccc(C(F)(F)F)cc1)COC(c1ccccc1)c1ccccc1 (stereo unspecified) | -69.8% | 5.17 µM [falling, full curve] | 4.11 µM [falling, full curve]

Row | SMILES | cell number change | AC50 [1] | AC50 [2]
20 | Cc1ccccc1-n1nnnc1SCC(=O)c1c(N)n(C)c(=O)n(C)c1=O | 14.4% |  | 
21 | N#C/C(=C\c1c(Oc2ccc(Cl)cc2)nc2ccccn2c1=O)C(=O)NC1CCS(=O)(=O)C1 (stereo unspecified) | -34.1% | 29.1 µM [falling, single point] | 32.6 µM [falling, single point]
22 | CC(CN1CCCCC1)OC(=O)c1ccc2c(c1)OCCO2 (stereo unspecified) | -7.69% | 5.17 µM [falling, single point] | 
23 | O=C(Nc1cccnc1)c1scc2c1OCCO2 | -1.36% | 0.731 µM [rising, full curve] | 
24 | COc1cc2c3c(c1)C1(C(=O)N3C(C)(C)C=C2C)C(C#N)=C(N)Oc2cc(C)oc(=O)c21 (stereo unspecified) | -2.04% | 5.17 µM [rising, single point] | 
25 | CC(C)(C)OC(=O)N[C@@H](Cc1ccccc1)C(=O)N[C@@H](CO)[C@H](O)[C@@H]1C[C@@H]1C(=O)NC1CC1 | 1.2% |  | 
26 | CC(=O)Nc1nc(C)c(-c2nc3ccc([N+](=O)[O-])cc3[nH]2)s1 | 14.9% | 6.51 µM [rising, partial curve, poor fit] | 
27 | CC1Cc2nc(SCC(=O)N3CCN(c4ccccc4)CC3)n(C)c(=O)c2S1 (stereo unspecified) |  | 0.58 µM [rising, single point] | 
28 | NC(=S)N/N=C/c1ccccc1OC(=O)c1cc2ccccc2oc1=O | 24.2% | 32.6 µM [falling, single point] | 
29 | Cc1ccccc1CS(=O)(=O)CC(O)CN1CCCC1=O (stereo unspecified) | -11.7% | 29.1 µM [rising, single point] | 
30 | Cc1ccc(NC(=O)c2ccc(Cl)c(NC(=O)c3cccs3)c2)cc1 |  | 32.6 µM [falling, single point] | 
31 | COc1ccccc1C1c2ccc3ccccc3c2Oc2ncn(CCN(C)C)c(=N)c21 (stereo unspecified) | -11.1% | 0.82 µM [falling, full curve] | 
32 | C=CCN1CCN(C(=O)c2cc3c(s2)CCCC3)CC1 | 38.4% | 13 µM [rising, partial curve, poor fit] | 16.4 µM [rising, partial curve, poor fit]
33 | Cc1cccc(NC(=O)CSc2nc3[nH]c(=O)cc(O)c3s2)c1 | -40.9% | 29.1 µM [falling, single point] | 23.1 µM [falling, single point]
34 | Cc1cc(O)c(C=Nc2ccc(N3CCOCC3)cc2)c(C)c1Cl | 16.4% | 29.1 µM [rising, single point] | 
35 | Cn1c(=O)c2c(nc(N3CCCCC3)n2C)n(C)c1=O | 86.9% | 16.4 µM [rising, partial curve] | 13 µM [rising, partial curve, poor fit]
36 | COc1ccc(NC(=O)CCc2nnc3ccc(N4CCC5(CC4)OCCO5)nn23)cc1 | -16.7% | 1.3 µM [falling, full curve] | 
37 | Cc1ccc(C)c(N2C(=O)c3cc(N4CCOCC4)c([N+](=O)[O-])cc3C2=O)c1 | -45.5% | 5.17 µM [falling, full curve] | 5.8 µM [falling, full curve]
38 | CCOC(=O)c1c(C)[nH]c(N=Nc2ccccc2)c1C |  | 0.82 µM [rising, full curve] | 0.651 µM [rising, partial curve]

Row | SMILES | cell number change | AC50 [1] | AC50 [2]
39 | O=C(Cn1cc(C(=O)C2CC2)c2ccccc21)Nc1ccccc1Cl | 12.2% |  | 
40 | O=C(C1CCN(S(=O)(=O)c2ccccc2[N+](=O)[O-])CC1)N1CCOCC1 |  |  | 0.291 µM [falling, single point]
41 | N#Cc1c(N2C(=O)Nc3ccccc3N2O)sc2c1CCCCCC2 | 19.3% | 3.26 µM [rising, full curve, poor fit] | 
42 | CCOCCn1ccc2c(OCC(=O)NCCc3ccc(OC)c(OC)c3)cccc2c1=O | -50% | 29.1 µM [falling, single point] | 32.6 µM [falling, single point]
43 | CCc1cc(CNC(=O)c2cc(COc3ccc(C)nc3)on2)on1 | 13.9% | 29.1 µM [rising, single point] | 
44 | COC(=O)c1c(NC(=O)COC(=O)CNC(=O)c2ccco2)sc(C)c1C | 16.8% | 0.58 µM [rising, partial curve, poor fit] | 
45 | Cc1ccc(NC(=O)COc2ccc(C3SCCS3)cc2)cc1 | 15.7% | 29.1 µM [rising, single point] | 
46 | COn1c(SC2CCCCC2)nc2ccccc2c1=O | -1.9% | 32.6 µM [falling, single point] | 
47 | CC(=Nc1cccc(O)c1)c1sc2ccccc2c1O |  | 5.17 µM [falling, partial curve] | 5.8 µM [falling, partial curve]
48 | COc1ccc(Nc2cc(=O)oc3ccccc23)cc1 |  | 0.13 µM [falling, full curve, poor fit] | 
49 | CCC(=O)NC(c1ccccc1)c1c(O)ccc2ccccc12 (stereo unspecified) | 5.56% | 0.116 µM [rising, full curve, poor fit] | 
50 | COc1ccc(C2c3[nH]c4ccccc4c3C[C@H]3C(=O)N(CC(C)C)CC(=O)N23)c(OC)c1 (stereo partly specified) | 9.92% | 6.51 µM [rising, single point] | 
51 | CCOC(=O)CSc1ncc(-c2cccc(Cl)c2)cn1 | -12.6% |  | 
52 | CCOC(=O)c1cc(COc2cc(Cl)cc(Cl)c2)on1 | -4.89% | 2.59 µM [falling, partial curve, poor fit] | 0.0058 µM [falling, full curve, poor fit]
53 | O=C(CN1C(=O)/C(=C/c2ccccc2F)Oc2ccccc21)N1CCN(c2ccccn2)CC1 | -27.9% | 0.92 µM [rising, full curve] | 
54 | Cc1ccc(NC(=O)c2cnccn2)cc1S(=O)(=O)N(C)C | 7.95% | 23.1 µM [rising, single point] | 
55 | CC(C)(C)c1ccc(OCC(=O)NCC(c2cccs2)N2CCOCC2)cc1 (stereo unspecified) | 76.3% |  | 23.1 µM [rising, partial curve]
56 | CN(Cc1ccccc1)c1ccc(C(=O)O)cc1[N+](=O)[O-] | 28.4% | 29.1 µM [rising, partial curve, poor fit] | 
57 | O=C(COC(=O)c1cccc(NS(=O)(=O)/C=C/c2ccccc2)c1)Nc1ccccc1OC(F)F | 32.6% | 3.66 µM [rising, partial curve] | 5.8 µM [rising, partial curve]

Reformatted: entries from further up.

| Row | SMILES | cell number change | AC50 [1] | AC50 [2] |
| --- | --- | --- | --- | --- |
| 23 | O=C(Nc1cccnc1)c1scc2c1OCCO2 | -1.36% | 0.731 µM [rising, full curve] |  |
| 24 | COc1cc2c3c(c1)C1(C(=O)N3C(C)(C)C=C2C)C(C#N)=C(N)Oc2cc(C)oc(=O)c21 (stereo unspecified) | -2.04% | 5.17 µM [rising, single point] |  |
| 25 | CC(C)(C)OC(=O)N[C@@H](Cc1ccccc1)C(=O)N[C@@H](CO)[C@H](O)[C@@H]1C[C@@H]1C(=O)NC1CC1 | 1.2% |  |  |
| 26 | CC(=O)Nc1nc(C)c(-c2nc3ccc([N+](=O)[O-])cc3[nH]2)s1 | 14.9% | 6.51 µM [rising, partial curve, poor fit] |  |
| 27 | CC1Cc2nc(SCC(=O)N3CCN(c4ccccc4)CC3)n(C)c(=O)c2S1 (stereo unspecified) |  | 0.58 µM [rising, single point] |  |
